For two molecules, binding results are on record in patent US20170285043A1.

Chains of the proteins cited; added tags and fusions are not shown. Lines headed by an entry give the natural chain unless they say otherwise; changes in a name come on top.
UniProt Q9NXC5: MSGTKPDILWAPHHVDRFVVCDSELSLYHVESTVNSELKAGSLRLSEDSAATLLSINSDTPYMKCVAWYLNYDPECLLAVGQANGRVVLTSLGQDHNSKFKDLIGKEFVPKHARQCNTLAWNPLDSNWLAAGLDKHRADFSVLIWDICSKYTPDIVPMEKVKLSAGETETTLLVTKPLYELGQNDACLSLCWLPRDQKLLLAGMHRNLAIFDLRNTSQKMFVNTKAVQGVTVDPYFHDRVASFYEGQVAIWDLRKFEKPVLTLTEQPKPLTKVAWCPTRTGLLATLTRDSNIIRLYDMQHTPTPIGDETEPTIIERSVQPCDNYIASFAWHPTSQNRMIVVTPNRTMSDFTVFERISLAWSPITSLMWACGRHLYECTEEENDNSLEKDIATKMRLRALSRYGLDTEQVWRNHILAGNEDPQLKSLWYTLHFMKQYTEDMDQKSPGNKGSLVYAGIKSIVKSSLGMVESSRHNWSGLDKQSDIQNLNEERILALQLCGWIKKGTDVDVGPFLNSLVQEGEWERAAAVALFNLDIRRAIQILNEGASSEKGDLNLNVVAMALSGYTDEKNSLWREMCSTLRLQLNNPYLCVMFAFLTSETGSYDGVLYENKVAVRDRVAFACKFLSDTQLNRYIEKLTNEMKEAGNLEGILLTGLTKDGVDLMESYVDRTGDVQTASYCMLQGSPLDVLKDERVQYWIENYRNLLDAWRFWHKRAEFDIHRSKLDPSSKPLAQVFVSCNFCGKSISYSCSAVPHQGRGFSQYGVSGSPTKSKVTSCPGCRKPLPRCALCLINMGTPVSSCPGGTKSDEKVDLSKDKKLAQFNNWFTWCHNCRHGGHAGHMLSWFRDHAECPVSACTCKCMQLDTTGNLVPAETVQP

In assay [1] the target is GATOR2, recombinant, transiently co-expressed (HA-Mios, HA-WDR59, HA-WDR24, HA-Sec13, HA-Seh1L) (Homo sapiens (Human)) (UniProt Q9NXC5). Briefly: anti-FLAG co-immunoprecipitation, transient co-expression in HEK-293T, immunoblot (FIG. 1B). (Immunoblotting shows a protein as a band on a membrane.)
Assay [2] has as its target GATOR2 complex immunopurified through stably expressed FLAG-WDR24 (human) (UniProt Q9NXC5). In words: anti-FLAG immunoprecipitation of FLAG-WDR24 from HEK-293T, immunoblot (figure not shown).

No constants are given. Whether binding was seen depends on the method and setting. For some assays here: In cells and extracts the contact can be indirect. Some binding calls cover weakened binding; strength is not graded here. For some assays here: Sequences can lack the tags named with a protein.

B1: FLAG-Sestrin1 (protein, not shown: small tags and cut ends)
chain: MAEGENEVRWDGLCSRDSTTRETALENIRQTILRKTEYLRSVKETPHRPSDGLSNTESSDGLNKLLAHLLMLSKRCPFKDVREKSEFILKSIQELGIRIPRPLGQGPSRFIPEKEILQVGSEDAQMHALFADSFAALGRLDNITLVMVFHPQYLESFLKTQHYLLQMDGPLPLHYRHYIGIMAAARHQCSYLVNLHVNDFLHVGGDPKWLNGLENAPQKLQNLGELNKVLAHRPWLITKEHIEGLLKAEEHSWSLAELVHAVVLLTHYHSLASFTFGCGISPEIHCDGGHTFRPPSVSNYCICDITNGNHSVDEMPVNSAENVSVSDSFFEVEALMEKMRQLQECRDEEEASQEEMASRFEIEKRESMFVFSSDDEEVTPARAVSRHFEDTSYGYKDFSRHGMHVPTFRVQDYCWEDHGYSLVNRLYPDVGQLIDEKFHIAYNLTYNTMAMHKDVDTSMLRRAIWNYIHCMFGIRYDDYDYGEINQLLDRSFKVYIKTVVCTPEKVTKRMYDSFWRQFKHSEKVHVNLLLIEARMQAELLYALRAITRYMT
With B1, the binding result in assay [1] is reported as “binds”.

B2: endogenous Sestrin1 (protein)
chain: B1 chain
As for B2, in assay [2], the binding result is “binds”.
